Here are results for 2 molecules from paper PMC4234486.

The chains behind the UniProt entries cited, without tags or fusion partners. Where a name states a change or a piece, a line headed by the entry shows the natural chain unless it says otherwise.
UniProt Q09872: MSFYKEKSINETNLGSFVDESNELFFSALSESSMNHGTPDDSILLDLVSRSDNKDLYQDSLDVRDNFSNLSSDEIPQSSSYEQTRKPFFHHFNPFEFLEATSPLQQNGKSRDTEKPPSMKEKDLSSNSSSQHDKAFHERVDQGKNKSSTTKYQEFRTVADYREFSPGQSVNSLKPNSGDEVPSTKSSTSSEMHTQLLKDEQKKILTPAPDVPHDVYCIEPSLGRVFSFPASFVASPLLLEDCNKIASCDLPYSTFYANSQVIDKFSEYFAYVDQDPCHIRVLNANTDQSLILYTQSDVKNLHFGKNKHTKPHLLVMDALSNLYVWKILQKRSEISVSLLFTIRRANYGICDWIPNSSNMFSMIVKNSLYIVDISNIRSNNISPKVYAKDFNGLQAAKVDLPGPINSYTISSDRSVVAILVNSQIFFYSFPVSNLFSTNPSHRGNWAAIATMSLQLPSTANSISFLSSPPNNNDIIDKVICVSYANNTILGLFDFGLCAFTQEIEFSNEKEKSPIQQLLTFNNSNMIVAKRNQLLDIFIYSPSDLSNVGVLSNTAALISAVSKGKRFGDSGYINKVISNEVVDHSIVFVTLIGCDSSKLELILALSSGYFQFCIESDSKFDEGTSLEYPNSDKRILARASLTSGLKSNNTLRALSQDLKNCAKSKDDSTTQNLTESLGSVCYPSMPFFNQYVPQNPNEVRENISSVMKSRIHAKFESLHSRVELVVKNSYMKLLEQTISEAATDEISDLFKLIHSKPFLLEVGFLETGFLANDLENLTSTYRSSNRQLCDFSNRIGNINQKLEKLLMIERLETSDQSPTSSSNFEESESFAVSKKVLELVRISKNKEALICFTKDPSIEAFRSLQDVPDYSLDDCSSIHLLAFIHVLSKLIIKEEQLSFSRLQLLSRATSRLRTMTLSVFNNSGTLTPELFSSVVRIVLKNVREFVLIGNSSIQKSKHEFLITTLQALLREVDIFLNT

Results are given in words; binding and its absence hold for the method and conditions named. In cells and extracts the contact can be indirect. Binding can be weak; no strength is given. For some assays here: Sequences can lack the tags named with a protein.

One assay addresses T1, Exo2-TAP (S. pombe) (UniProt P40383).
T1 sequence: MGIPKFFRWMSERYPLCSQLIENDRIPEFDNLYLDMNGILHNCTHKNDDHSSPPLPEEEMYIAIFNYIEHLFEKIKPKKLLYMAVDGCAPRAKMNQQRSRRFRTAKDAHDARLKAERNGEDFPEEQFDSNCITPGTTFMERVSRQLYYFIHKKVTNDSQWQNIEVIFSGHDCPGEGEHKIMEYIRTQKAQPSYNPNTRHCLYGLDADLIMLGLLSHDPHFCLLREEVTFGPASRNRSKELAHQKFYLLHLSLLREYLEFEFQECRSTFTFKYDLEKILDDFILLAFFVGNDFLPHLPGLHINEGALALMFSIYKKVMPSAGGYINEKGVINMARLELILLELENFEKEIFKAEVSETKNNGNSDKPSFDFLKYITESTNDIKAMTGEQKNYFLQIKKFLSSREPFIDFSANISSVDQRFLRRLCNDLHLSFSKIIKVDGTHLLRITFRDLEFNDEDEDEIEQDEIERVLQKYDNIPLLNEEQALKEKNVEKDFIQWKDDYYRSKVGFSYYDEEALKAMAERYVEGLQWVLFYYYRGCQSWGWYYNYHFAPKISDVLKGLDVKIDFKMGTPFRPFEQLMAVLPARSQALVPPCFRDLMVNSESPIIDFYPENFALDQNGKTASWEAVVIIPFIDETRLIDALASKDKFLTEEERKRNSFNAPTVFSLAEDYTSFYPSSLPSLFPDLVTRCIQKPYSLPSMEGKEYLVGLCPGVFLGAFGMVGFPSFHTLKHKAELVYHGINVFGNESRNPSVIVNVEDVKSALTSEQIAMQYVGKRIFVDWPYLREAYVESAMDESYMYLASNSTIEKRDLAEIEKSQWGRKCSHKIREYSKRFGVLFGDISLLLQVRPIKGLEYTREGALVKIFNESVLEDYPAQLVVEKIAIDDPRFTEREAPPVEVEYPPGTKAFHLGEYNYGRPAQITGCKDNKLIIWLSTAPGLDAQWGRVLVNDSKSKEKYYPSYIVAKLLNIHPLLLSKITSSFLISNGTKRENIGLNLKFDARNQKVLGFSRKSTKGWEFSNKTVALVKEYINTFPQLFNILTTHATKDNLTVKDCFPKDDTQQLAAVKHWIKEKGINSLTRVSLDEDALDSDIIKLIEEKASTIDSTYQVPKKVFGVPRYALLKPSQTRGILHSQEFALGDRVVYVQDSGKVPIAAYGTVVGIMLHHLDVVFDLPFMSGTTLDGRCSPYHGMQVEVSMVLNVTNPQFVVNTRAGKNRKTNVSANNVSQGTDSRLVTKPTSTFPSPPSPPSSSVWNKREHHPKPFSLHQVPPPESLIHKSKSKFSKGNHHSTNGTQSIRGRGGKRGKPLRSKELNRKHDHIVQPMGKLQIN
Kind of assay: co-IP; fission yeast cell extracts; TAP-tagged protein immunoprecipitated with monoclonal antibodies against protein A; Western blot with peroxidase anti-peroxidase complexes (TAP) and anti-myc; also after treating 250 ul of extract with 200 units of RNase I for 15 minutes at room temperature (interaction kept).

The target in another assay is Eti1-TAP (S. pombe). Described as above.

In the case of Eti1-myc (from UniProt Q09872), the binding entry with Exo2-TAP (S. pombe) is reported as “binds”.

B1: Exo2-myc (protein, UniProt P40383 1-1328)
chain: MGIPKFFRWMSERYPLCSQLIENDRIPEFDNLYLDMNGILHNCTHKNDDHSSPPLPEEEMYIAIFNYIEHLFEKIKPKKLLYMAVDGCAPRAKMNQQRSRRFRTAKDAHDARLKAERNGEDFPEEQFDSNCITPGTTFMERVSRQLYYFIHKKVTNDSQWQNIEVIFSGHDCPGEGEHKIMEYIRTQKAQPSYNPNTRHCLYGLDADLIMLGLLSHDPHFCLLREEVTFGPASRNRSKELAHQKFYLLHLSLLREYLEFEFQECRSTFTFKYDLEKILDDFILLAFFVGNDFLPHLPGLHINEGALALMFSIYKKVMPSAGGYINEKGVINMARLELILLELENFEKEIFKAEVSETKNNGNSDKPSFDFLKYITESTNDIKAMTGEQKNYFLQIKKFLSSREPFIDFSANISSVDQRFLRRLCNDLHLSFSKIIKVDGTHLLRITFRDLEFNDEDEDEIEQDEIERVLQKYDNIPLLNEEQALKEKNVEKDFIQWKDDYYRSKVGFSYYDEEALKAMAERYVEGLQWVLFYYYRGCQSWGWYYNYHFAPKISDVLKGLDVKIDFKMGTPFRPFEQLMAVLPARSQALVPPCFRDLMVNSESPIIDFYPENFALDQNGKTASWEAVVIIPFIDETRLIDALASKDKFLTEEERKRNSFNAPTVFSLAEDYTSFYPSSLPSLFPDLVTRCIQKPYSLPSMEGKEYLVGLCPGVFLGAFGMVGFPSFHTLKHKAELVYHGINVFGNESRNPSVIVNVEDVKSALTSEQIAMQYVGKRIFVDWPYLREAYVESAMDESYMYLASNSTIEKRDLAEIEKSQWGRKCSHKIREYSKRFGVLFGDISLLLQVRPIKGLEYTREGALVKIFNESVLEDYPAQLVVEKIAIDDPRFTEREAPPVEVEYPPGTKAFHLGEYNYGRPAQITGCKDNKLIIWLSTAPGLDAQWGRVLVNDSKSKEKYYPSYIVAKLLNIHPLLLSKITSSFLISNGTKRENIGLNLKFDARNQKVLGFSRKSTKGWEFSNKTVALVKEYINTFPQLFNILTTHATKDNLTVKDCFPKDDTQQLAAVKHWIKEKGINSLTRVSLDEDALDSDIIKLIEEKASTIDSTYQVPKKVFGVPRYALLKPSQTRGILHSQEFALGDRVVYVQDSGKVPIAAYGTVVGIMLHHLDVVFDLPFMSGTTLDGRCSPYHGMQVEVSMVLNVTNPQFVVNTRAGKNRKTNVSANNVSQGTDSRLVTKPTSTFPSPPSPPSSSVWNKREHHPKPFSLHQVPPPESLIHKSKSKFSKGNHHSTNGTQSIRGRGGKRGKPLRSKELNRKHDHIVQPMGKLQIN
Regarding B1, in the assay with Eti1-TAP (S. pombe), the binding result is listed as “binds”.
